# Measured values as given in PubChem BioAssay AID720504 (National Center for Advancing Translational Sciences (NCATS), 2013).
# The chains behind the UniProt entries cited, without tags or fusion partners.
# UniProt P53350, whole entry, looked up: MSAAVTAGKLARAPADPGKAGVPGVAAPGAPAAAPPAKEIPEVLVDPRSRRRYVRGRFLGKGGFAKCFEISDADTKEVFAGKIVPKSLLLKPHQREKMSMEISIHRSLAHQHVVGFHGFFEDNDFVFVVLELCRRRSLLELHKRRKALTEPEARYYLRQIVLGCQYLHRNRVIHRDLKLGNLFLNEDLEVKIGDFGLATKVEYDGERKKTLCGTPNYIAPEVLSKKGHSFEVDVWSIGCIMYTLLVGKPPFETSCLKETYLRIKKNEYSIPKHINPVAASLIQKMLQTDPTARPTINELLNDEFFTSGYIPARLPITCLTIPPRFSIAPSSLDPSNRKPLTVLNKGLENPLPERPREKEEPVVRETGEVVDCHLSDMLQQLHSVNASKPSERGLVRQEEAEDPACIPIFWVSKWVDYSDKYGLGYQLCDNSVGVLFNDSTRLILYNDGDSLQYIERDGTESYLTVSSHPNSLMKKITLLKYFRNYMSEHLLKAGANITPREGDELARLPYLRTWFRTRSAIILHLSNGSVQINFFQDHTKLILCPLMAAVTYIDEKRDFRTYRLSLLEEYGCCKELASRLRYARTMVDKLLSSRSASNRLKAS
# The whole screen tested about 360,000 compounds, of which about 10,000 (2.8%) were called active. The inconclusive results got no clear call from the source; some entries with a clear call stand among them for comparison. Calls follow the shape of the dose curve; as a rule, active = well fitted inhibition curve with a large enough effect; inconclusive = small, poorly fitted or top-dose-only effect; inactive = flat fitted curve, though single readings scatter. A potency beside an inconclusive call is a rough fit, not a confirmed value. Where a SMILES comes first, the peptide text is derived from it. The star is where a group is joined. Cbz = O=C(OCc1ccccc1)*
# Target: Serine/threonine-protein kinase PLK1 (Homo sapiens) (UniProt P53350)
# Assay: qHTS for Inhibitors of PLK1-PDB (polo-like kinase 1 - polo-box domain): Primary Screen; also: nearly all actives have a fitted effect of over 65% in size; as to max response, negative = inhibition: series mostly up to about 57 µM
# Details: Plk1 PBD binding of FITC phosphopeptide, fluorescence polarization
# % is scaled to controls: 0 for no effect and ±100 for the full control effect; potency is read from the fitted curve at half-maximal effect.
Structure (SMILES),Potency,"max response, negative = inhibition"
S=c1nc(-c2ccccc2Cl)[nH][nH]1,"inconclusive: 23.8 µM [inhibitor, partial curve]",–
CCOC(=O)N1CCN(c2nc3ccc(C)cc3n3cnnc23)CC1,–,inactive: -3.07%
Cc1ccc(S(C)(=O)=N/C=C2\C(=O)c3sccc3N(C)S2(=O)=O)cc1 (stereo not given),"inconclusive: 26.7 µM [inhibitor, partial curve]",–
COc1ccccc1NS(=O)(=O)c1cc(NC(=O)C(C)(C)C)ccc1N1CCOCC1,–,inactive: -1.36%
O=S(=O)(c1ccc(Br)cc1)N1CCN(c2ccc3nnc(-c4ccccc4)n3n2)CC1,–,inactive: 0.0295%
Cc1ccc(NC2=NCCCCC2)cc1,"inconclusive: 23.8 µM [inhibitor, single point]",–
COc1ccc(C2(CNC(=O)c3cccc([N+](=O)[O-])c3)CCOCC2)cc1OC,active: 15 µM,–
CCNC(=O)C1CCCN(C(=O)c2ccc(N(C)C)cc2)CC1 (stereo not given),–,inactive: 4.3%
Fc1cccc(Cc2c(-c3cccc(Cl)c3)nc3ccc(Br)cn23)c1,"inconclusive: 29.9 µM [inhibitor, single point]",–
O=C(O)c1cc(-c2ccco2)nn1-c1ccc(Cl)cc1,"inconclusive: 18.9 µM [inhibitor, partial curve]",–
Cc1cc(NC(=O)CSc2ccc3ccccc3c2)no1,"inconclusive: 26.7 µM [inhibitor, partial curve]",–
CCC1COC(c2cccn2Cc2ccccc2Cl)=N1 (stereo not given),"inconclusive: 8.44 µM [inhibitor, single point]",–
CSc1nnc(C)c(=O)n1COC(=O)/C=C/c1ccc2c(c1)OCO2,"inconclusive: 18.9 µM [inhibitor, partial curve]",–
CCn1c2ccccc2c2cc(NC(=O)COC(=O)Cc3cn4ccsc4n3)ccc21,–,inactive: -10.5%
O=C(O)CCCC(=O)Nc1cccc(C(=O)Nc2ccccc2C(=O)O)c1,–,inconclusive: -30.9% [inhibitor]
CN(C)CCCCOc1ccc(F)cc1,"inconclusive: 8.44 µM [inhibitor, single point]",–
CCOc1ccc(-c2c(=O)n(OCC)c3ccccc3[n+]2[O-])cc1,"inconclusive: 13.4 µM [inhibitor, partial curve]",–
O=C(COc1cccnc1[N+](=O)[O-])N1CCN(C(=O)c2ccco2)CC1,–,inconclusive: -32.3% [inhibitor]
CCN(CC)CCn1c2ccccc2c(=O)c2c(O)ccc(O)c21,"inconclusive: 33.6 µM [inhibitor, single point]",–
CCN(CC)CCCNC(=O)c1cn(CC)c2ccc(S(=O)(=O)N(C)C3CCCCC3)cc2c1=O,–,inconclusive: -2.42% [inhibitor]
CCOC(=O)CSC1=C(C#N)C(c2ccc(Cl)cc2)CC(=O)N1 (stereo not given),–,inactive: -23.8%
COCCSc1nnc(NS(=O)(=O)c2ccccc2)s1,"inconclusive: 29.9 µM [inhibitor, partial curve]",–
O=C(Cn1cnc([N+](=O)[O-])c1)Nc1ccc(F)c(Cl)c1,"inconclusive: 16.8 µM [inhibitor, partial curve]",–
Clc1ccc(Cl)c2sc(N3CCOCC3)nc12,–,inactive: -6.37%

Structure (SMILES),Potency,"max response, negative = inhibition"
O=C(CSCCc1ccccn1)Nc1cccnc1Cl,–,inactive: -0.952%
Cc1cccc(OC(=O)n2c(=S)oc3cc(Cl)ccc32)c1,active: 29.9 µM,–
CCn1nc(NS(=O)(=O)c2ccccc2[N+](=O)[O-])c2cc3cccc(C)c3nc21,"inconclusive: 26.7 µM [inhibitor, single point]",–
CCC(C)C(NC(=O)OCc1ccccc1)C(=O)NC(Cc1ccc(O)cc1)C(=O)OC (stereo not drawn) (Cbz-Ile-Tyr-OMe; configuration not given here),–,inconclusive: -30.7% [inhibitor]
CC1CCN(C(=O)CSc2nc3ncccc3[nH]2)CC1,"inconclusive: 29.9 µM [inhibitor, partial curve]",–
c1coc(-c2nc3ccccc3nc2-c2ccco2)c1,"inconclusive: 26.7 µM [inhibitor, single point]",–
CC(Sc1nnc(NC2CCCCC2)s1)C(=O)Nc1ccc2c(c1)C(=O)c1ccccc1C2=O (stereo not given),"inconclusive: 23.8 µM [inhibitor, partial curve]",–
Cc1ccc(OCCCC(=O)Nc2nccs2)cc1,"inconclusive: 16.8 µM [inhibitor, partial curve]",–
O=c1c(-c2ccco2)[n+]([O-])c2ccccc2n1OCc1ccccc1F,"inconclusive: 10.6 µM [inhibitor, partial curve]",–
C=CCn1c(SCC(=O)Nc2sc3c(c2C#N)CCC(C)C3)nc2cc(C(=O)O)ccc2c1=O (stereo not given),"inconclusive: 37.7 µM [inhibitor, partial curve]",–
N#Cc1cc2cc3c(cc2nc1Cl)OCCO3,–,inactive: -6.1%
Cc1ccc(S(=O)(=O)NC2CCOC(C)(C)C2)cc1 (stereo not given),"inconclusive: 4.23 µM [inhibitor, full curve]",–
COc1ccccc1CNC(=O)CSc1ccc(-c2cccs2)nn1,–,inactive: -7.21%
Cc1nonc1C1CCCN1C(=O)c1cc(COc2cccc(C(F)(F)F)c2)on1 (stereo not given),"inconclusive: 21.2 µM [inhibitor, partial curve, poor fit]",–
CC(=O)c1ccc(NC(=O)Cc2cccs2)cc1,–,inconclusive: -34% [inhibitor]
O=C(NCc1ccc(Cl)cc1)c1ccc2c(=O)n(CC3CCCO3)c(=S)[nH]c2c1 (stereo not given),"inconclusive: 37.7 µM [inhibitor, single point]",–
C1=C(c2ccc(-c3ccccc3)cc2)Nc2ncnn2C1c1ccco1 (stereo not given),active: 4.74 µM,–
O=C(OCc1nc2ccccc2s1)c1cccc(S(=O)(=O)N2CCOCC2)c1,–,inactive: -2%
COc1cccc2cc(C(=O)N3CCN(C45CC6CC(CC(C6)C4)C5)CC3)c(=O)oc12,active: 26.7 µM,–
O=[N+]([O-])c1ccccc1NCc1c(O)ccc2ccccc12,–,inactive: -26.2%
COc1ccc(/C=C/c2ccc3cccc(O)c3n2)cc1Br,"inconclusive: 23.8 µM [inhibitor, single point]",–
O=C(Cn1cc(COc2ccccc2[N+](=O)[O-])nn1)c1ccc(O)cc1,"inconclusive: 21.2 µM [inhibitor, single point]",–
CCN(CC(=O)Nc1ccc(OC)cc1)C(=O)c1ccc2c(c1)NC(=O)C(C)S2 (stereo not given),–,inactive: -2.83%
CCOC(=O)c1cc(-c2ccc(N)cc2)sc1N,–,inactive: -19.8%

# Retrieved by compound from the list above (3):
Structure (SMILES),Potency,"max response, negative = inhibition"
C=CCn1c(SCC(=O)Nc2sc3c(c2C#N)CCC(C)C3)nc2cc(C(=O)O)ccc2c1=O (stereo not given),"inconclusive: 37.7 µM [inhibitor, partial curve]",–
CCOC(=O)c1cc(-c2ccc(N)cc2)sc1N,–,inactive: -19.8%
COc1ccc(/C=C/c2ccc3cccc(O)c3n2)cc1Br,"inconclusive: 23.8 µM [inhibitor, single point]",–

# Additional records follow.

Structure (SMILES),Potency,"max response, negative = inhibition"
CCOC(=O)c1c(NC(=S)Nc2ccc(OCC)cc2)sc2c1CCN(C)C2,"inconclusive: 26.7 µM [inhibitor, partial curve]",–
CC1CCc2nc3ccc(S(=O)(=O)N4CCC(C(=O)NC(C)c5ccccc5)CC4)cc3c(C(=O)O)c2C1 (stereo not given),"inconclusive: 67 µM [inhibitor, single point]",–
O=C(Nc1ccc(S(=O)(=O)N2CCN(Cc3ccccc3)CC2)cc1)c1cnccn1,–,inactive: -8.51%
C/C(Cn1nc([N+](=O)[O-])cc1C)=N\NC(=O)COc1c(Cl)cc(Cl)cc1Cl,–,inactive: -8.62%
O=C(CCN1C(=O)C2C3C=CC(C3)C2C1=O)NCCc1ccccc1 (stereo not given),active: 23.8 µM,–
O=c1c2ccccc2c(C=Nc2ccc(O)cc2)c(O)n1Cc1ccccc1,–,inactive: -0.0107%
CN(C)S(=O)(=O)c1ccc(C(=O)Nc2nnc(-c3cccs3)o2)cc1,–,inconclusive: -16.4% [inhibitor]
Cc1cc(Nc2ccc(F)cc2Cl)n2nc(C)nc2n1,"inconclusive: 37.7 µM [inhibitor, single point]",–
Cc1ccc(S(=O)(=O)Nc2ccc3ccccc3c2[N+](=O)[O-])cc1,active: 29.9 µM,–
CC(C)Oc1ccc(C(=O)NCc2ccco2)cc1,active: 26.7 µM,–
Cc1ccc(S(=O)(=O)N2[C@@H](c3ccccc3)C(C(=O)O)=CC[C@H]2c2ccc(C(C)C)cc2)cc1,"inconclusive: 21.2 µM [inhibitor, single point]",–
C#CC(=O)CC1(CN(Cc2ccccc2)C(=O)OC(C)(C)C)CCCCC1,active: 11.9 µM,–
O=C(O)/C=C/C(=O)Nc1ccc(N2CCOCC2)nc1N1CCOCC1,"inconclusive: 29.9 µM [inhibitor, single point]",–
CCC1(C)Cc2c(sc3nc(SC)[nH]c(=S)c23)CO1 (stereo not given),"inconclusive: 23.8 µM [inhibitor, single point]",–
Cc1c(C(=O)O)cccc1-n1c(C)cc(/C=N/Nc2ccc([N+](=O)[O-])cn2)c1C,"inconclusive: 13.4 µM [inhibitor, partial curve]",–
COc1ccc(C(=O)C2CCCN(C(=O)c3ccc(OC)o3)C2)c(C)c1 (stereo not given),–,inactive: -27.3%
C/C=C/Cn1c(SCc2ccc(C)cc2)nc2c1c(=O)[nH]c(=O)n2C,active: 21.2 µM,–
CCNc1ccc(Br)cc(C(=O)/C=C/c2ccccc2Cl)c1=O,"inconclusive: 26.7 µM [inhibitor, partial curve]",–
O=C(NNS(=O)(=O)c1ccccc1[N+](=O)[O-])c1cccc(Cl)c1,"inconclusive: 21.2 µM [inhibitor, single point]",–
NC1=C(Br)C(=O)c2ncccc2C1=O,active: 7.52 µM,–
CC(C)C[C@@]12C(=O)N(c3ccc(Br)cc3)C(=O)N1[C@H](c1ccc(Br)cc1)[C@@H]1C(=O)N(C(C)(C)C)C(=O)[C@@H]12,–,inactive: -12.3%
Cc1cc2nc(-c3ccc(SCC(=O)N4CCN(C(=O)c5ccco5)CC4)nc3)[nH]c2cc1C,"inconclusive: 29.9 µM [inhibitor, single point]",–

# Two successive records already listed, quoted:
Structure (SMILES),Potency,"max response, negative = inhibition"
COc1ccc(C2(CNC(=O)c3cccc([N+](=O)[O-])c3)CCOCC2)cc1OC,active: 15 µM,–
CCNC(=O)C1CCCN(C(=O)c2ccc(N(C)C)cc2)CC1 (stereo not given),–,inactive: 4.3%
